Here are results for 1 molecule from US20090068182A1 (ARIUS RESEARCH, published 2009).

Experiment [1] deals with AR40A746.2.3 antigen (CD9) in rabbit normal tissues (rabbit). The experiment is described as follows: IHC on normal tissue micro arrays, 5 micrograms/mL.
Experiment [2] shares this target. Put plainly: IHC on normal spleen tissue.

These are yes or no findings as the source states them, for the method shown. Binding calls can cover weak binding; strength is not graded here.

B1: AR40A746.2.3 monoclonal antibody (hybridoma IDAC 141204-01) (antibody, V domains shown)
VH: DVQLQESGPGLVKPSQSLSLTCTVTGYSITSDYAWNWIRQFPGNKLEWMGYISYSGFTNYNPSLKSRISITRDTSKNQFFLQLSSVTTEDTATYFCEGGNYRYSWFPYWGQGTLVTVSA
VL: DIQMTQTTSSLSASLGDRVTISCSASQGISNYLNWYQQKPDGNVKLLIYYTSSLHSGVPSRFSGSGSGTDYSLTISNLEPEDIATYYCQQYSKLPYTFGGGTKLEIKR
notes: also called IDAC 141204-01 antibody; mAR40A746.2.3
B1: the binding result in experiment [1] and in experiment [2] was “binds” each time.
